# Results are given in words; binding and its absence hold for the method and conditions named. Some results given as binding are weak or reduced against the parent protein; the word gives no strength.
# Amino acid sequences for entries named in this document (tags omitted).
# UniProt Q61221: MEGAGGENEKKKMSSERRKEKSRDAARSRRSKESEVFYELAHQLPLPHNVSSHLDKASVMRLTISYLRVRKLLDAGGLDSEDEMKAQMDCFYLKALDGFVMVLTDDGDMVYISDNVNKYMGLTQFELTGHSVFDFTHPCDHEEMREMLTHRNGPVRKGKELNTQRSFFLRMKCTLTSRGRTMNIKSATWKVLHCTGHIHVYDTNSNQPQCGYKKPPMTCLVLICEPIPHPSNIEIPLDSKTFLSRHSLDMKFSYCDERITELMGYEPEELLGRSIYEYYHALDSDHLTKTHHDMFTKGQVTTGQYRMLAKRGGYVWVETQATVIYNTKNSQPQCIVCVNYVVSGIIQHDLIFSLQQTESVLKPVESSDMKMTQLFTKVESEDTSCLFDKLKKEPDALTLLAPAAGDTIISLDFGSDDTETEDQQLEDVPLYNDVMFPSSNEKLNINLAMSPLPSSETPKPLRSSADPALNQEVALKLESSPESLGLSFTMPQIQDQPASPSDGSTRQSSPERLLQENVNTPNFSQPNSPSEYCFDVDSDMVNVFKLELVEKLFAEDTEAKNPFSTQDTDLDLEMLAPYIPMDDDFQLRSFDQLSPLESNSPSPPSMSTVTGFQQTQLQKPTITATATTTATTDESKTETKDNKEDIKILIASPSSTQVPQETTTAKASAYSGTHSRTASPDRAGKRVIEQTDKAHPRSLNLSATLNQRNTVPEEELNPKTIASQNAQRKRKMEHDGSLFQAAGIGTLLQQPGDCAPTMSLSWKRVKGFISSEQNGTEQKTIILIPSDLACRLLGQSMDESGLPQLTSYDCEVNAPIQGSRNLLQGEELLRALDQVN
# UniProt Q3TKT4: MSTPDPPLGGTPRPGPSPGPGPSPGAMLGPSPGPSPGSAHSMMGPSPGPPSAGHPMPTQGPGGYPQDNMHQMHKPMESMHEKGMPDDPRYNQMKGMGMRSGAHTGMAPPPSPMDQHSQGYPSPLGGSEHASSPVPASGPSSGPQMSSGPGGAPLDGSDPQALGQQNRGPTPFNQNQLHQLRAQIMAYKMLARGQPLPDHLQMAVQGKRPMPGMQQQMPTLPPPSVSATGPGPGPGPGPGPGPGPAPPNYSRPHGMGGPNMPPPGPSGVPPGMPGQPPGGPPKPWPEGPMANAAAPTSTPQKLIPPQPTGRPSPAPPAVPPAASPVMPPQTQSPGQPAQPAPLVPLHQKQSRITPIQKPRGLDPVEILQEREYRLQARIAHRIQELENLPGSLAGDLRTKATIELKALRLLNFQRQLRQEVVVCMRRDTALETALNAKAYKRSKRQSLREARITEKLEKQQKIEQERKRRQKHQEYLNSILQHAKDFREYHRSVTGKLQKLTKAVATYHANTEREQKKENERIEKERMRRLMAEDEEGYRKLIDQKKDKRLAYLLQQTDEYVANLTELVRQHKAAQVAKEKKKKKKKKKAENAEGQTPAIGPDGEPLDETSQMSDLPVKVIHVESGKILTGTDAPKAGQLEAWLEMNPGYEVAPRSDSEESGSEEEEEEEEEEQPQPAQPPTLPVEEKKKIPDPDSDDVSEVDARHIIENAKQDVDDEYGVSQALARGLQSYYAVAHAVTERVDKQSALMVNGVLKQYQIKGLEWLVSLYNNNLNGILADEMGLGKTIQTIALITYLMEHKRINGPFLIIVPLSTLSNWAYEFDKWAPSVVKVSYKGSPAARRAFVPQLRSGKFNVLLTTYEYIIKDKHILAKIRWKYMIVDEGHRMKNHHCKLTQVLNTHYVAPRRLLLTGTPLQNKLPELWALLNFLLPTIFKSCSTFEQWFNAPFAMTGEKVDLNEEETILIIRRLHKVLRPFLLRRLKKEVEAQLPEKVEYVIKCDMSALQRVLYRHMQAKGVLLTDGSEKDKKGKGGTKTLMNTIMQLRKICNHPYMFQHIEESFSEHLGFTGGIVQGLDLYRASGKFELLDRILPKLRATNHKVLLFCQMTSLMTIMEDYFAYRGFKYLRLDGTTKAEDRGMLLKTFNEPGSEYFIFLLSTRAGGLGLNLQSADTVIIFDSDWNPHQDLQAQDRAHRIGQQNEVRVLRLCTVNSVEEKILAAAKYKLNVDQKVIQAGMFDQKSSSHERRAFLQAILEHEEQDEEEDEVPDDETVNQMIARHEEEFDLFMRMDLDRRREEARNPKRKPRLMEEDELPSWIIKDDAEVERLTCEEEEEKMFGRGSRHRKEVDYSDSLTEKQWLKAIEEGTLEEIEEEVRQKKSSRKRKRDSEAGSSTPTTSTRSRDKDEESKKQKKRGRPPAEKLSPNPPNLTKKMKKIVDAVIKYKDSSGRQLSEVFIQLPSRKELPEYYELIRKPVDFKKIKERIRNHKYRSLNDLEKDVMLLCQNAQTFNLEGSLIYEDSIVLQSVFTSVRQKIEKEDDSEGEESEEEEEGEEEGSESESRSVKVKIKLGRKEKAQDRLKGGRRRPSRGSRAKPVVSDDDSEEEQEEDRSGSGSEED
# Biological target: hypoxia-inducible factor 1 alpha (HIF-1α) (mouse (endogenous in primary murine hepatocytes)) (UniProt Q61221)
# Test: Re-ChIP (ChIP-on-ChIP, sequential chromatin immunoprecipitation); primary murine hepatocytes treated with HGF and harvested at indicated time points; chromatin cross-linked with 1% formaldehyde; sequential precipitation with indicated antibodies; Chka promoter DNA amplified
substance,measurement,value
Brahma-related gene 1 (Brg1) (from UniProt Q3TKT4 1-1613),binding,binds
